No constants are given. Whether binding was seen depends on the method and setting. In cells and extracts the contact can be indirect. Some results given as binding are weak or reduced against the parent protein; the word gives no strength. Sequences can lack the tags named with a protein.

This passage reports binding results from publication PMC8065851.

The target in test [1] is T1, Csi1 (S. cerevisiae orthologue of CSN6), fused to a fragment of cytosine deaminase (FCY1) (S. cerevisiae) (UniProt Q04368).
T1 sequence: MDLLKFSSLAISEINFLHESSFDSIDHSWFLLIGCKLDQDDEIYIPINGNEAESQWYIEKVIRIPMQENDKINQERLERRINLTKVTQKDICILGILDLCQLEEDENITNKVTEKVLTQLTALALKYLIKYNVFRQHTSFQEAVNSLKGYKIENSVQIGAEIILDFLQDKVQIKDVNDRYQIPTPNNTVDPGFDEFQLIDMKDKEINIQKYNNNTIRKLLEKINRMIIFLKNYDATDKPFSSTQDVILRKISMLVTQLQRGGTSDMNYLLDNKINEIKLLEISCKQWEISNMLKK
The test can be described thus: split reporter; protein-fragment complementation assay (PCA) in S. cerevisiae: fragments of cytosine deaminase (FCY1), each attached to a different protein; survival read-out by deamination of cytosine to uracil.

Test [2] has as its target T2, Csn10/CSN2, chromosomally integrated, TAP-tagged at the C-terminal (S. cerevisiae) (UniProt Q12348).
T2 sequence: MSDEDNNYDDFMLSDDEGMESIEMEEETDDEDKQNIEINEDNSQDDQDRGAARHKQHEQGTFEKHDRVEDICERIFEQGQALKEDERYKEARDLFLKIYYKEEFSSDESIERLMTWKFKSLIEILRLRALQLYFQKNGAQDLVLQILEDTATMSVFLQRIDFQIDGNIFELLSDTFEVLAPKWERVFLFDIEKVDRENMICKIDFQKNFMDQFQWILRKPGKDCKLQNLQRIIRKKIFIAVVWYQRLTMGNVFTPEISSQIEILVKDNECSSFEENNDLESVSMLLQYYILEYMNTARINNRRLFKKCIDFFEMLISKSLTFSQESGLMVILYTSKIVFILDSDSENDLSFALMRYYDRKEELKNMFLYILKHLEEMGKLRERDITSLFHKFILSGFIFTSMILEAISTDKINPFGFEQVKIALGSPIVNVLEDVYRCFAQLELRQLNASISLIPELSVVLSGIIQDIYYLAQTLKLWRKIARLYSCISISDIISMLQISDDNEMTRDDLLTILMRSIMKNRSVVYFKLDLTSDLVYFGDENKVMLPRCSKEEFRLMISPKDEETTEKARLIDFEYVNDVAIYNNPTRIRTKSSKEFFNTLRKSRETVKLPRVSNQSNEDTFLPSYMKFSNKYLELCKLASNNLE
The test can be described thus: pull-down; calmodulin-based affinity pulldown of chromosomally integrated Csn10-TAP from native extracts of wildtype and Δcsn5 mutant cells; immunoblotting with Rpn5 and Myc antibodies. Background: A western blot detects proteins with antibodies after separation by electrophoresis.

B1: Csn5 (S. cerevisiae CSN5/Jab1), fused to a fragment of cytosine deaminase (FCY1) (protein, UniProt Q12468 1-440)
chain: MSLSNKTVKELRQLLKERYTVEDELTESIALSSMRFKPSQEPEFHALSQSSLLKTKLKQQSSTDIPSYTHVLISKLSCEKITHYAVRGGNIEIMGILMGFTLKDNIVVMDCFNLPVVGTETRVNAQLESYEYMVQYIDEMYNHNDGGDGRDYKGAKLNVVGWFHSHPGYDCWLSNIDIQTQDLNQRFQDPYVAIVVDPLKSLEDKILRMGAFRTIESKSDDNSATSYYELETIIFDSELNRALFETKLNLHCVIEDDESEQISLNRLIDSMKQYSYLMDSKNVRTRIKLATTSERVSNENKKNIDYQNRSTRSQFCLNTQRGDSTETSSFGSMFSGDNTSDVDMEDRNLTEFDSTDTSLCINGEPSIHVNRVERSSRSTDNFHNSKKRMNSNQERCHDEGNDMLQRNVLETDYARAKNRILASKIKQYERLRFYKDTFTL
On to B1, for which the binding entry in test [1] is recorded as “binds”.

B2: Rpn5 (S. cerevisiae 19S lid subunit that replaces CSN4), fused to a fragment of cytosine deaminase (FCY1) (protein, UniProt Q12250 1-445)
chain: MSRDAPIKADKDYSQILKEEFPKIDSLAQNDCNSALDQLLVLEKKTRQASDLASSKEVLAKIVDLLASRNKWDDLNEQLTLLSKKHGQLKLSIQYMIQKVMEYLKSSKSLDLNTRISVIETIRVVTENKIFVEVERARVTKDLVEIKKEEGKIDEAADILCELQVETYGSMEMSEKIQFILEQMELSILKGDYSQATVLSRKILKKTFKNPKYESLKLEYYNLLVKISLHKREYLEVAQYLQEIYQTDAIKSDEAKWKPVLSHIVYFLVLSPYGNLQNDLIHKIQNDNNLKKLESQESLVKLFTTNELMRWPIVQKTYEPVLNEDDLAFGGEANKHHWEDLQKRVIEHNLRVISEYYSRITLLRLNELLDLTESQTETYISDLVNQGIIYAKVNRPAKIVNFEKPKNSSQLLNEWSHNVDELLEHIETIGHLITKEEIMHGLQAK
For the molecule B2, in test [1], the binding entry is recorded as “binds”.

B3: Rpn5/CSN4, endogenous (protein, UniProt Q12250 1-445)
chain: MSRDAPIKADKDYSQILKEEFPKIDSLAQNDCNSALDQLLVLEKKTRQASDLASSKEVLAKIVDLLASRNKWDDLNEQLTLLSKKHGQLKLSIQYMIQKVMEYLKSSKSLDLNTRISVIETIRVVTENKIFVEVERARVTKDLVEIKKEEGKIDEAADILCELQVETYGSMEMSEKIQFILEQMELSILKGDYSQATVLSRKILKKTFKNPKYESLKLEYYNLLVKISLHKREYLEVAQYLQEIYQTDAIKSDEAKWKPVLSHIVYFLVLSPYGNLQNDLIHKIQNDNNLKKLESQESLVKLFTTNELMRWPIVQKTYEPVLNEDDLAFGGEANKHHWEDLQKRVIEHNLRVISEYYSRITLLRLNELLDLTESQTETYISDLVNQGIIYAKVNRPAKIVNFEKPKNSSQLLNEWSHNVDELLEHIETIGHLITKEEIMHGLQAK
B3: the binding entry in test [2] is reported as “binds”.

B4: Csn9 (S. cerevisiae orthologue of CSN7), fused to a fragment of cytosine deaminase (FCY1) (protein, UniProt Q03981 1-162)
chain: MVMREETIKSLEDPYKYHYKEEWLNTKDPDEQQLFEIFAFGNIKDLPENIILTSLMRSKLEKLTLVTLSEIYNELSYELIKEECQIEDDGIIESHLIQLQNIFKAEMDSVSKSMKFSRRFDCRDVYCHEKELTIIKNPRVTKEYLVQNLRSWETKLKQNILE
Turning to B4, the binding entry in test [1] is reported as “binds”.

B5: Csn9-13Myc (protein, UniProt Q03981 1-162)
chain: MVMREETIKSLEDPYKYHYKEEWLNTKDPDEQQLFEIFAFGNIKDLPENIILTSLMRSKLEKLTLVTLSEIYNELSYELIKEECQIEDDGIIESHLIQLQNIFKAEMDSVSKSMKFSRRFDCRDVYCHEKELTIIKNPRVTKEYLVQNLRSWETKLKQNILE
As for B5, in test [2], the binding result was “binds”.
